Data from US20200079861A1.
Results are given in words; binding and its absence hold for the method and conditions named. Some binding calls cover weakened binding; strength is not graded here.

T1: biotinylated GITR (GITR-bio) (UniProt Q9Y5U5)
T1 sequence (biotinylated, site not stated, looked up): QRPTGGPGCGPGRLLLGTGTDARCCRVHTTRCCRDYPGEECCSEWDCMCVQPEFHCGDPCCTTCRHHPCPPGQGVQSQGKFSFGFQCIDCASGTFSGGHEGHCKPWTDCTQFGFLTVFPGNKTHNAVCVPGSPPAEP

B1: chimeric parental 231-32-15 antibody (antibody, V domains shown)
VH: QVQLLQSGTELVRPGVSVKISCKGSGYTFTDYAMYWVKQSHAKSLEWIGVIRTYSGDVTYNQKFKDKATMTVDKSSSIAYMELARLSSEDSAIYYCAKSGTVRGFAYWGQGTLVTVSS
VL: DIVMTQSPSSLTVTAGEKVIMSCKSSQSLLNSGNQKNYLTWYQQKPGQPPKLLIYWASTRESGVPDRFTGSGSGTDFTLTISSVQAEDLAVYHCQNDYSYPYTFGGGTKLEIK
B2: pab1875 (antibody, V domains shown)
VH: QVQLVQSGAEVKKPGASVKVSCKGSGYTFTDYAMYWVRQAPGQGLEWIGVIRTYSGDVTYNQKFKDRATMTVDKSISTAYMELSRLRSDDTAVYYCAKSGTVRGFAYWGQGTLVTVSS
VL: DIVMTQSPPTLSLSPGERVTLSCKSSQSLLNSGNQKNYLTWYQQKPGQAPRLLIYWASTRESGIPARFSGSGSGTDFTLTISSLQPEDFAVYHCQNDYSYPYTFGQGTKLEIK
B3: pab1876 (antibody, human IgG1, V domains shown)
VH: B2 VH
VL: DIVMTQSPDSLAVSLGERATINCKSSQSLLNSGNQKNYLTWYQQKPGQPPKLLIYWASTRESGVPDRFSGSGSGTDFTLTISSLQAEDVAVYHCQNDYSYPYTFGQGTKLEIKR

Columns and labels:
[1] = biological target: T1, biotinylated GITR (GITR-bio); assay: flow cytometry, antibody expressed on 1624-5 pre-B cells, GITR-bio detected with streptavidin-PE
[2] = biological target: T1, biotinylated GITR (GITR-bio); assay: flow cytometry competition, GITR-bio pre-incubated with 2 µg antibody

| Binder | binding [1] | binding [2] |
| --- | --- | --- |
| B1 | binds |  |
| B2 |  | binds |
| B3 |  | binds |
